From patent US7415358B2, “Molecular toxicology modeling” (Ocimum Biosolutions, Inc., priority 2001, dated 2008)

System: kidney
Assay: Linear discriminant analysis score of each gene (tox vs non-tox samples)

## 9-[(2-hydroxyethyl) methyl] guanine [ACYCLOVIR]
  LDAScore: 99.61
